Reference: patent US7005537B2, “Production of esters” (ExxonMobil Chemical Patents Inc., priority 1999, dated 2006)
“And” between values parts separate entries of the source, which are not always exact repeats. Equal values may be shown once.

Assay: Absolute Maximum Incremental Reactivity (MIR), grams ozone formed per gram of compound
[1] = esters of the invention, determined values

Row | SMILES | Ozone Yield Absolute Reactivities (EBIR scenario) | Ozone Yield Absolute Reactivities (MIR scenario) | Ozone Yield Absolute Reactivities (MOIR scenario) | absolute MIR [1] | absolute MIR (Actual measured value)
1 | CC(C)=O [Acetone] | 0.123 | 0.472 | 0.197 | – | –
2 | COC(=O)C(C)C [methyl isobutyrate] | – | – | – | 0.42 | –
3 | COC(=O)C(C)(C)C [Methyl Pivalate, methyl pivalate (methyl 1,1,1-trimethyl acetate)] | 0.098 | 0.236 | 0.155 | 0.236 and 0.24 | 0.236 (Actual measured value) gram ozone produced/gram fluid
4 | CC [Ethane] | 0.172 | 0.354 | 0.226 | – | –
